Laboratory results: PubChem BioAssay AID1259254 (NCATS, 2017)
In all, the deposit lists about 59,000 reagents; shown is a random part of them. About 1,550 of them (2.6%) count as active. 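G2 share is only a proxy for re-replication; each gene was hit by three separate siRNAs, and active genes were retested.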 Raw values are not corrected between plates. Entries without a mark were called inactive. The numbers tell different reagents against one gene apart. Not stated in the record: the amount of reagent.

Purpose: 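Finding genes that stop cells copying their DNA twice in one cycle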 (primary screen)
Cell system: human HCT116 colorectal cancer cells
Reagent: single siRNA against human genes
Timing: 3 days
Read-out: 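Nuclei stained with Hoechst and imaged; cell-cycle phase assigned by DNA content; G2 share scaled per plate, non-targeting siRNA 0%, GMNN siRNA 100%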
Scale: G2 robust z-score and G2 cells, % of GMNN control: higher = more G2 cells, more excess DNA replication; raw share of cells in G2: higher = larger share of cells with G2 DNA content
Active means: 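An siRNA counts as active if its G2 robust z-score lies at least 5 MADs above the screen median; here such calls match roughly 38% of GMNN control or more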

The first 8 records, to show the layout:
gene symbol | reagent no. | G2 robust z-score | G2 cells, % of GMNN control | raw share of cells in G2 (%)
COMP | 1 | -0.124 | 2.1 | 5.71
COMP | 2 | 2.54 | 20.8 | 12.6
COMP | 3 | -1.15 | -5.14 | 2.32
BTBD17 | 1 | -0.597 | -1.23 | 3.35
BTBD17 | 2 | -0.974 | -3.89 | 1.71
BTBD17 | 3 | -0.813 | -2.75 | 3.45
COL28A1 | 1 | -0.415 | 0.047 | 4.21
COL28A1 | 2 | 1.14 | 11 | 7.77

The listing, from the start:
gene symbol | reagent no. | G2 robust z-score | G2 cells, % of GMNN control | raw share of cells in G2 (%)
COMP | 1 | -0.124 | 2.1 | 5.71
COMP | 2 | 2.54 | 20.8 | 12.6
COMP | 3 | -1.15 | -5.14 | 2.32
BTBD17 | 1 | -0.597 | -1.23 | 3.35
BTBD17 | 2 | -0.974 | -3.89 | 1.71
BTBD17 | 3 | -0.813 | -2.75 | 3.45
COL28A1 | 1 | -0.415 | 0.047 | 4.21
COL28A1 | 2 | 1.14 | 11 | 7.77
COL28A1 | 3 | -0.523 | -0.709 | 2.95
LSM6 | 1 | 0.0821 | 3.54 | 5.08
LSM6 | 2 | 0.662 | 7.62 | 9.43
LSM6 | 3 | -0.286 | 0.952 | 4.47
LSM6 | 4 | -0.512 | -0.637 | 3.84
LSM6 | 5 | 0.758 | 8.3 | 6.02
LSM6 | 6 | -0.273 | 1.05 | 3.56
SDCCAG8 | 1 | 0.251 | 4.74 | 6.84
SDCCAG8 | 2 | 0.161 | 4.1 | 5.83
SDCCAG8 | 3 | 2.83 | 22.9 | 11.7
SMYD3 | 1 | 0.0647 | 3.42 | 4
SMYD3 | 2 | -0.12 | 2.12 | 6.87
SMYD3 | 3 | -0.768 | -2.44 | 2.87
KPTN | 1 | 5.19 (active) | 39.5 | 20.5
KPTN | 2 | 2.07 | 17.5 | 11.4
KPTN | 3 | -0.423 | -0.0107 | 3.17
SAT2 | 1 | -0.149 | 1.92 | 6.56
SAT2 | 2 | -1.03 | -4.3 | 3.12
SAT2 | 3 | -1.03 | -4.27 | 2.87
EDEM3 | 1 | -0.305 | 0.822 | 5.09
EDEM3 | 2 | 1.64 | 14.5 | 9.46
EDEM3 | 3 | 1.55 | 13.8 | 11.2
SLC1A2 | 1 | 0.433 | 6.02 | 6.61
SLC1A2 | 2 | 0.623 | 7.35 | 6.39
SLC1A2 | 3 | 4.63 | 35.5 | 17.6
GORAB | 1 | 0.883 | 9.18 | 7.98
GORAB | 2 | 0.708 | 7.95 | 5.49
GORAB | 3 | 0.263 | 4.82 | 4.45
ALDH1A1 | 1 | 3.51 | 27.6 | 14.9
ALDH1A1 | 2 | -0.158 | 1.85 | 4.68
ALDH1A1 | 3 | 1.37 | 12.6 | 9.01
CIT | 1 | -1.11 | -4.85 | 4.08
CIT | 2 | -0.639 | -1.53 | 4.63
CIT | 3 | -0.637 | -1.52 | 3.2
PRKACA | 1 | 1.84 | 15.9 | 10.9
PRKACA | 2 | -0.107 | 2.22 | 6.16
PRKACA | 3 | -0.785 | -2.55 | 3.12
TECPR2 | 1 | 2.92 | 23.5 | 16
TECPR2 | 2 | 0.645 | 7.51 | 7.08
TECPR2 | 3 | 0.393 | 5.73 | 5.49
SLC23A1 | 1 | 0.311 | 5.16 | 4.96
SLC23A1 | 2 | 0.658 | 7.6 | 7.83
SLC23A1 | 3 | 0.188 | 4.29 | 6.83
TFAM | 1 | -1.01 | -4.14 | 3.3
TFAM | 2 | 1.29 | 12 | 8.66
TFAM | 3 | -0.505 | -0.587 | 3.14
ANG | 1 | 5.31 (active) | 40.3 | 19.4
ANG | 2 | 0.344 | 5.39 | 6.55
ANG | 3 | 7.25 (active) | 54 | 24.1
LEAP2 | 1 | -0.426 | -0.0329 | 1.81
LEAP2 | 2 | 1.09 | 10.7 | 8.37
LEAP2 | 3 | -0.0449 | 2.65 | 4.12
CPSF2 | 1 | -0.765 | -2.42 | 2.87
CPSF2 | 2 | -1.38 | -6.75 | 2.89
CPSF2 | 3 | 1.19 | 11.3 | 8.43
C6 | 1 | 2.38 | 19.7 | 14.5
C6 | 2 | 0.525 | 6.66 | 6.53
C6 | 3 | 3.71 | 29.1 | 14.9
DAB2IP | 1 | 0.542 | 6.78 | 9.19
DAB2IP | 2 | 1.81 | 15.7 | 10.5
DAB2IP | 3 | -0.0166 | 2.85 | 5.9
